These are yes or no findings as the source states them, for the method shown. Binding seen in cells or lysates may run through a third protein. A yes stands for co-enrichment or nearness to the bait. Other partners may have been found. Where a sequence is shown, tags or fusion partners need not be part of it.
T1: GFP–SAP54 (35S:GFP–SAP54, amino acids 34 to 124) in transgenic Arabidopsis (Aster Yellows phytoplasma strain Witches' Broom (AY-WB)) (UniProt Q2NJQ2)
T1 sequence: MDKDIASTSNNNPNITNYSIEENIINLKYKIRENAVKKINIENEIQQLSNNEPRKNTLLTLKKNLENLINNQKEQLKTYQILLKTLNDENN

The chains behind the UniProt entries cited, without tags or fusion partners.
UniProt P35631: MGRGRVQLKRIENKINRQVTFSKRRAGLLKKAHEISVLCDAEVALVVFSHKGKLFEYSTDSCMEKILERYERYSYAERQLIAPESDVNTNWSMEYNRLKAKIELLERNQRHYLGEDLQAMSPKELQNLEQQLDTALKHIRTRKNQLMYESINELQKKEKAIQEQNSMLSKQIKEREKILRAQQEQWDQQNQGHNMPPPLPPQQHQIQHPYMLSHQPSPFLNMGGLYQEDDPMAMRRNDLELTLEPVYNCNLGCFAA
UniProt P29382: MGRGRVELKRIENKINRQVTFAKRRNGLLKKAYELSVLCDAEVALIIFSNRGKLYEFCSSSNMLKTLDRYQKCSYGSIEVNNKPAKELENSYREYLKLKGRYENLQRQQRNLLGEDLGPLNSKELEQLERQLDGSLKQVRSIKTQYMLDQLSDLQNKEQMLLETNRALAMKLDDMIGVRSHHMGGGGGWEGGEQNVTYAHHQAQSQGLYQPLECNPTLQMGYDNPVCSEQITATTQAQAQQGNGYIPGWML
UniProt P29384: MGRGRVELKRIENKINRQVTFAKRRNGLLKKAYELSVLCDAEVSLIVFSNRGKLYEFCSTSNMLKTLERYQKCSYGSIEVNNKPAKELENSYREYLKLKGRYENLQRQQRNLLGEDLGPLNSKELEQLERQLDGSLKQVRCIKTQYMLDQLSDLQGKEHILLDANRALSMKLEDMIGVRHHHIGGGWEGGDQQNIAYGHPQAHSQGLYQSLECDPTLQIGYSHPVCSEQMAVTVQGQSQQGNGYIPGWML
UniProt O64645: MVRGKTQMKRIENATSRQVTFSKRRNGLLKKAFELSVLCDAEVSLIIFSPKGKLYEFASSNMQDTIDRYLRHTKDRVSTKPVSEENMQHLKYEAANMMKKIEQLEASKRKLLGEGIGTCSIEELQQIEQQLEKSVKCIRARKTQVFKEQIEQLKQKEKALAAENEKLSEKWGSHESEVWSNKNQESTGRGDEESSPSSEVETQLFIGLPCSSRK


Molecular target: T1, GFP–SAP54 (35S:GFP–SAP54, amino acids 34 to 124) in transgenic Arabidopsis (Aster Yellows phytoplasma strain Witches' Broom (AY-WB))
Test: affinity purification with mass spectrometry; GFP-binding resin on inflorescence extracts of transgenic Arabidopsis expressing 35S:GFP–SAP54 or 35S:GFP; gel slices, LC-MS/MS

Molecule	binding
AP1, endogenous in Arabidopsis inflorescences (from UniProt P35631 1-256)	binds
SEP1, endogenous in Arabidopsis inflorescences (from UniProt P29382 1-251)	binds
SEP2, endogenous in Arabidopsis inflorescences (from UniProt P29384 1-250)	binds
SUPPRESSOR OF OVEREXPRESSION OF CONSTANS1 (SOC1), endogenous in Arabidopsis inflorescences (from UniProt O64645 1-214)	binds
MAF1, endogenous in Arabidopsis inflorescences (protein, UniProt Q9AT76 1-196) MGRRKIEIKRIENKSSRQVTFSKRRNGLIDKARQLSILCESSVAVVVVSASGKLYDSSSGDDISKIIDRYEIQHADELRALDLEEKIQNYLPHKELLETVQSKLEEPNVDNVSVDSLISLEEQLETALSVSRARKAELMMEYIESLKEKEKLLREENQVLASQMGKNTLLATDDERGMFPGSSSGNKIPETLPLLN	binds
